Values quoted from earlier work in patent US5880116A, “Use of celastrol to treat alzheimer's disease” (Neurocal International, priority 1996, dated 1999).
For at least one compound, name, drawing or mass did not settle the structure.

Tested on: agitation and aggression
Conditions: in vivo; cited from earlier work

Compound: CCCC(CCC)C(=O)O [valproate]
- agitation and aggression: reported to help reduce agitation and aggression
